# In patent US10738024B2, “Compounds for treatment of angiogenesis-mediated diseases” (Indiana University Research and Technology Corporation, priority 2013, dated 2020):
# Some entries share one result that the patent states for a list of compounds.
# Test system: HRECs
# Test: ALAMARBLUE proliferation assay in HRECs
# Format: cell-based, human
# Details: from GI50 values of Table 1
# Procedure: Particularly, in a 96-well clear bottom black plate, cells (2,500 cells per well) were seeded in a total volume of 100 μL EGM-2. After 24 hours of incubation of the plate at 37° C. and 5% CO2, a DMSO solution of synthetic cremastranone (1) or SH-11052 (2) was added in the concentration range of 0.5 nM to 500 μM (final DMSO concentration=1%). The plate was then further incubated for 48 hours before adding 11.1 μL of ALAMARBLUE® reagent to each well. Four hours after the addition of ALAMARBLUE®, fluorescence readings with excitation and emission wavelengths of 560 nm and 590 nm, respectively, were taken and the data were analyzed in GraphPad Prism software (v. 6.0). Dose response curves were generated and the GI50 values were calculated using the following equation: Y=100/(1+10^(X−Log GI50)).
# For proliferation assays, cells (2500 per well) were seeded in a 96-well clear bottom black polystyrene plate in a total volume of 100 μL. […] Four hours after the addition of ALAMARBLUE® reagent, fluorescence readings with excitation and emission wavelengths of 560 nm and 590 nm respectively were taken and the data was analyzed in GraphPad Prism software. The dose response curves were generated and the GI50 values were calculated using the equation: Y=100/(1+10^(X−Log GI50)) (Table 1).
row,Structure (SMILES),selectivity for HRECs over ocular tumor cell lines [fold]
1,"COc1ccc(CC2COc3cc(OC)c(OC)c(OC)c3C2=O)cc1OC(=O)[C@H](Cc1ccccc1)NC(=O)OC(C)(C)C (stereo partly drawn) [Compound 6c, (2S)-2-methoxy-5-((5,6,7-trimethoxy-4-oxochroman-3-yl)methyl)phenyl 2-((tert-butoxycarbonyl)amino)-3-phenylpropanoate]",> 100
2,"COc1ccc(/C=C2\COc3cc(OC)c(OC)c(OC)c3C2=O)cc1OCCN1CCCC1 [Compound 11k, (E)-5,6,7-trimethoxy-3-(4-methoxy-3-(2-(pyrrolidin-1-yl)ethoxy)benzylidene)chroman-4-one]",> 100
